The other results are listed elsewhere or left out.
Compound: COc1ccc(Cn2ccc3cc(C)c(C(=O)NO)cc32)cc1
Assay: dose-dependent thermal stabilisation call (2D-TPP, DLPTP, 10% FDR) (binary (1 = stabilised)); higher = stabilised by the compound
Conditions: system: HL-60 intact cells; concentration range 0.04-10 µM
Method: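 2D thermal proteome profiling in intact HL-60 cells treated with BRD-3811 (0, 0.04, 0.29, 2, 10 uM) for 90 min at 37 C, then heated 3 min at one of 12 temperatures (42-63.9 C). Soluble protein was quantified by TMT10 MS. The value is the DLPTP call of the paper: dose-dependent thermal stabilisation over all temperatures at 10% FDR (F-test of a dose-response against a flat model); one experiment, one call per tested protein.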

Sequences of proteins named here, by UniProt entry; tags and fusion partners are left off. A change or cut given only in a name is not applied to a line headed by its entry.
UniProt Q92610: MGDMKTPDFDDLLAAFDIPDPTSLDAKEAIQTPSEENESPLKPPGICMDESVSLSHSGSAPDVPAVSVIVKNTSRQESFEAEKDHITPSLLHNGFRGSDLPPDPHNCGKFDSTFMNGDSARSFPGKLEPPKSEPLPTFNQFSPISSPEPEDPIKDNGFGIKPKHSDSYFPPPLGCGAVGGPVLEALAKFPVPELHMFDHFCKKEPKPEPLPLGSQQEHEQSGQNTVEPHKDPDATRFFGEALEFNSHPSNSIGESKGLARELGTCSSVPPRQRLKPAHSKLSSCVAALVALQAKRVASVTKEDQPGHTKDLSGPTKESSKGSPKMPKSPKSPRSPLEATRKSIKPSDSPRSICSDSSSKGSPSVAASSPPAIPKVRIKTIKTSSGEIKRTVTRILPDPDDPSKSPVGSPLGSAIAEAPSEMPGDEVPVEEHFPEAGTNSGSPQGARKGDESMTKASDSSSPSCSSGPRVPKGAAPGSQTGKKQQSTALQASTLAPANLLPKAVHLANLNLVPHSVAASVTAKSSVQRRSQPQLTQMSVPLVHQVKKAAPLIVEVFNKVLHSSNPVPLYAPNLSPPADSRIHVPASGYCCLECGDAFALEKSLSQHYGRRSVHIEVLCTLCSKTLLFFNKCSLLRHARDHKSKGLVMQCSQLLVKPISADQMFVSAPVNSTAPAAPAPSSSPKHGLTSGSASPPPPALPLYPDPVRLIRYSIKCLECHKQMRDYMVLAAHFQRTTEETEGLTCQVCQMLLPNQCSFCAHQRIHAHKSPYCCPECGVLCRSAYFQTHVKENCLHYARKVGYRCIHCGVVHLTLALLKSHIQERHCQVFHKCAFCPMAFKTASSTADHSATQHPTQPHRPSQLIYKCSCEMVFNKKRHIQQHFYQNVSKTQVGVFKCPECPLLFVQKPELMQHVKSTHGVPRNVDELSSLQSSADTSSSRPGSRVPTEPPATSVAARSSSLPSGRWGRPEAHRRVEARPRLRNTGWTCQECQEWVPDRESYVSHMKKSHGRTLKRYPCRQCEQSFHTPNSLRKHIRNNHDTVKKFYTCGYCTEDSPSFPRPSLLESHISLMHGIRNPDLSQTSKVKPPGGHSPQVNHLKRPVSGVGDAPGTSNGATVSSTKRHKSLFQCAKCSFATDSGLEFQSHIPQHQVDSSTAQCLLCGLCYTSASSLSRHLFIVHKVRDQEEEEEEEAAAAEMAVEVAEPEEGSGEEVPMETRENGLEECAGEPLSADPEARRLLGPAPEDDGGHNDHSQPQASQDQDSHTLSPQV
UniProt Q6PJI9: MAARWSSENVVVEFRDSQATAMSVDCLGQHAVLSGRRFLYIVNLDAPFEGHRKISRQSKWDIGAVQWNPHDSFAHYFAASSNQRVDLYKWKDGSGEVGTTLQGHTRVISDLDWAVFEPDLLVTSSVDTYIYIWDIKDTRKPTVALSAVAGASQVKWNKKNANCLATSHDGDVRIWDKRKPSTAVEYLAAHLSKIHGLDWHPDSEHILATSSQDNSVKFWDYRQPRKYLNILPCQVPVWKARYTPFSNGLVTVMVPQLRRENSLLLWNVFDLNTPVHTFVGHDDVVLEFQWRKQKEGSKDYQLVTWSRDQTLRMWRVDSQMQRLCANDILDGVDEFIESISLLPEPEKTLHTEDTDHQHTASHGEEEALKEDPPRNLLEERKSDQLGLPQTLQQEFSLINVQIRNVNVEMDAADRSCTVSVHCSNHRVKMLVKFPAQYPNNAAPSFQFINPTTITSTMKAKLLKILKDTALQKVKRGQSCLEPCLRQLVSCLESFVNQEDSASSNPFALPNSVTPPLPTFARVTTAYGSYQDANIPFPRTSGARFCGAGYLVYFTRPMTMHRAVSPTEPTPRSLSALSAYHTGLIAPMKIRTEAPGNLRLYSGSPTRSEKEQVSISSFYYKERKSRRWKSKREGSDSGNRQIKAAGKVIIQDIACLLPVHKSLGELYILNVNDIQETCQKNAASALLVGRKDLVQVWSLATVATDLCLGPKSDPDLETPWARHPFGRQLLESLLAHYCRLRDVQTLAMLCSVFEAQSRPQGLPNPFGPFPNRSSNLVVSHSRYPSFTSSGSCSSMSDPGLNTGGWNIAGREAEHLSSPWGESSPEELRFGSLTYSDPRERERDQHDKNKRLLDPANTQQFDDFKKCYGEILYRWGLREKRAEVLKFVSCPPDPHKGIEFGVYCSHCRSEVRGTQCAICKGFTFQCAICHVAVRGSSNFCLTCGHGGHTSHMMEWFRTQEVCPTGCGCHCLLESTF
UniProt Q6N043: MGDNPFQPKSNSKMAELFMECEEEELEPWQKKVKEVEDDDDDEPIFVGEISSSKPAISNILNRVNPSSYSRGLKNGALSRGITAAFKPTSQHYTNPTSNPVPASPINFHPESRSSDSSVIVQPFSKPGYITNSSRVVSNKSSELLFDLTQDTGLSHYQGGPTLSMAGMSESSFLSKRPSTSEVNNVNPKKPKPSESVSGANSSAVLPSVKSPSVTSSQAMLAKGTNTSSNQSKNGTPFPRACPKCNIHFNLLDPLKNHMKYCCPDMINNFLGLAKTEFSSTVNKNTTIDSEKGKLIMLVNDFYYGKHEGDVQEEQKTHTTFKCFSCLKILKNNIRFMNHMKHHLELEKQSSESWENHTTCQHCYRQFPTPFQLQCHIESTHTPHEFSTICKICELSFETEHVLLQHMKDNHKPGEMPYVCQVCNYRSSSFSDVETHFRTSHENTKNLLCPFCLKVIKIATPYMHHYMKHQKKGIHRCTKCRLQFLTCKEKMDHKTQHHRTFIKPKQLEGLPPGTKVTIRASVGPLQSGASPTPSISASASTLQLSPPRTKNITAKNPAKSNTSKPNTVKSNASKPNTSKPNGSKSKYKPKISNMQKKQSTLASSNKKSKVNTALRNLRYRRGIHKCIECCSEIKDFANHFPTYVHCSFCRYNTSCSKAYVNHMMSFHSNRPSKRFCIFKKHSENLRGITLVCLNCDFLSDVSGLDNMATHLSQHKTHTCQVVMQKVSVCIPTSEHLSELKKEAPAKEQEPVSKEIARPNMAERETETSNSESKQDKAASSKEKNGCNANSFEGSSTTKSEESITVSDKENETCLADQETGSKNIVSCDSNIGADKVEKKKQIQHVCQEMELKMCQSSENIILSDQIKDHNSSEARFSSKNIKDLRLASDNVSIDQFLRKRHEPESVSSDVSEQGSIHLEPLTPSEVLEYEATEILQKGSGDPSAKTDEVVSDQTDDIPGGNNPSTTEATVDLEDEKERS
UniProt Q96JM3: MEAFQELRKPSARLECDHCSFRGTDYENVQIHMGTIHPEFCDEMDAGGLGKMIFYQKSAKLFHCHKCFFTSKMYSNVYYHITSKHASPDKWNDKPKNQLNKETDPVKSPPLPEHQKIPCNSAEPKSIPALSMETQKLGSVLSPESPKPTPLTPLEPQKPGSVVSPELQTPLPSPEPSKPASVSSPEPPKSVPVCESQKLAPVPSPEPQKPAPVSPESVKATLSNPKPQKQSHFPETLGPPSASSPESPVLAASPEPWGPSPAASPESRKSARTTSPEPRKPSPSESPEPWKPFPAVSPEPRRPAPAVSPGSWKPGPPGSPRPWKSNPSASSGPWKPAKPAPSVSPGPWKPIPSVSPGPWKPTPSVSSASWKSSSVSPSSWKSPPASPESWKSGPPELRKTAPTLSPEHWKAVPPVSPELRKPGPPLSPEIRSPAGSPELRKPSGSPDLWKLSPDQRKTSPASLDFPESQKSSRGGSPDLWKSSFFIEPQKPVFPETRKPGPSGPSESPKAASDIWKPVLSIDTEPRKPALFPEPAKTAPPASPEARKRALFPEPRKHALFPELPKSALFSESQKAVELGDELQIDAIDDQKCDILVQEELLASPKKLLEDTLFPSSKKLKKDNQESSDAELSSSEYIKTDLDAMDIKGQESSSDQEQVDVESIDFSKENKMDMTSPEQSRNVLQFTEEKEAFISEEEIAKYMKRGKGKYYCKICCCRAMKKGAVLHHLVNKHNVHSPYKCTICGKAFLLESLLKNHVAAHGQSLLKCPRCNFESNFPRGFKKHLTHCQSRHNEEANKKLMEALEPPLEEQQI
UniProt O43264: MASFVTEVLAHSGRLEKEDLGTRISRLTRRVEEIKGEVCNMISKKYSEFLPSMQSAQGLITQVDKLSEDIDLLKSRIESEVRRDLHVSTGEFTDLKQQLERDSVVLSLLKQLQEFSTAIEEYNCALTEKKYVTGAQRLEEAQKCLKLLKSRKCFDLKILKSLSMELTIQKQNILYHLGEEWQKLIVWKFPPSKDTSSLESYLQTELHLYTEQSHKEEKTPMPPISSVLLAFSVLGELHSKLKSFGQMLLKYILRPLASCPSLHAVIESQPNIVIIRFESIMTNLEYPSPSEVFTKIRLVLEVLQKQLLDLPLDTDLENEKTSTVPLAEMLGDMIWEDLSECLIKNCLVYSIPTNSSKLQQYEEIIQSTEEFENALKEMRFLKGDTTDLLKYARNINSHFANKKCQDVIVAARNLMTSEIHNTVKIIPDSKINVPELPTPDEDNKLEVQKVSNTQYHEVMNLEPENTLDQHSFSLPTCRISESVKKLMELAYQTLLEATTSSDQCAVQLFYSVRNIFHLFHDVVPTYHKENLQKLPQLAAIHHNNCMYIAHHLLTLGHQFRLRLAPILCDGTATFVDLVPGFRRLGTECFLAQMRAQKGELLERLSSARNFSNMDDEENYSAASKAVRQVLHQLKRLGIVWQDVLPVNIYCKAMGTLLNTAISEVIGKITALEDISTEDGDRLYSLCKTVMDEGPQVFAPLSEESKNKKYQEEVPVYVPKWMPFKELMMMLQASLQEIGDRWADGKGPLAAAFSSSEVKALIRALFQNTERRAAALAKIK
UniProt Q6FIF0: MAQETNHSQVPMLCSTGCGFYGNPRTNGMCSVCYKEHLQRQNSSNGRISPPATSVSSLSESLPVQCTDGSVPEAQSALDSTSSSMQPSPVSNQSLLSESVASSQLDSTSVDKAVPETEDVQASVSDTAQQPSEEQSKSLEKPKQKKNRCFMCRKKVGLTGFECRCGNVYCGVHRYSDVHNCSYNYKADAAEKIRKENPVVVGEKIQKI
UniProt Q96S15: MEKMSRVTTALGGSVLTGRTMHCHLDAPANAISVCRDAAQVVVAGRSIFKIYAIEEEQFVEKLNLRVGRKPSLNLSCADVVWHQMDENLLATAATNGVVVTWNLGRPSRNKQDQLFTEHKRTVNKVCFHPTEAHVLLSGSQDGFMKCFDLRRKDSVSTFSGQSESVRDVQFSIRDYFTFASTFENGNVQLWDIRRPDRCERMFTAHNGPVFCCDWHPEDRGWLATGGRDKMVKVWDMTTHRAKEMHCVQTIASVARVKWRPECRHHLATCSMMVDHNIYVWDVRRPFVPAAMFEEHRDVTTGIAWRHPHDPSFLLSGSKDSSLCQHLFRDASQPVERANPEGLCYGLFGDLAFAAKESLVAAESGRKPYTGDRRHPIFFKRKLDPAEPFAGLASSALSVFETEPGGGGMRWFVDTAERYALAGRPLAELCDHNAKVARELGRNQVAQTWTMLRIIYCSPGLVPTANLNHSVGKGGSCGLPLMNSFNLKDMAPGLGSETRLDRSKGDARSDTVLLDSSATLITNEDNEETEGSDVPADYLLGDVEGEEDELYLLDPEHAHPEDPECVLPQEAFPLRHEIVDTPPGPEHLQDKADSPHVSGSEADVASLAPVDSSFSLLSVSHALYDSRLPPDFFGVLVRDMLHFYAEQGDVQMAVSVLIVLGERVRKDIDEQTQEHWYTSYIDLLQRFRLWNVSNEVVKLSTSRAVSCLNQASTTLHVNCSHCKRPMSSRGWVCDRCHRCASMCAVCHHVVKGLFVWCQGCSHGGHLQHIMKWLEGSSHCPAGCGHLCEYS
UniProt O00488: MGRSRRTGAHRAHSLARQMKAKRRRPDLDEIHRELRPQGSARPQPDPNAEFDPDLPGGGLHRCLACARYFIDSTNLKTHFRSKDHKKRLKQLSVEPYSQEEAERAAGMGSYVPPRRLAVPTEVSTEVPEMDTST
UniProt Q5TAQ9: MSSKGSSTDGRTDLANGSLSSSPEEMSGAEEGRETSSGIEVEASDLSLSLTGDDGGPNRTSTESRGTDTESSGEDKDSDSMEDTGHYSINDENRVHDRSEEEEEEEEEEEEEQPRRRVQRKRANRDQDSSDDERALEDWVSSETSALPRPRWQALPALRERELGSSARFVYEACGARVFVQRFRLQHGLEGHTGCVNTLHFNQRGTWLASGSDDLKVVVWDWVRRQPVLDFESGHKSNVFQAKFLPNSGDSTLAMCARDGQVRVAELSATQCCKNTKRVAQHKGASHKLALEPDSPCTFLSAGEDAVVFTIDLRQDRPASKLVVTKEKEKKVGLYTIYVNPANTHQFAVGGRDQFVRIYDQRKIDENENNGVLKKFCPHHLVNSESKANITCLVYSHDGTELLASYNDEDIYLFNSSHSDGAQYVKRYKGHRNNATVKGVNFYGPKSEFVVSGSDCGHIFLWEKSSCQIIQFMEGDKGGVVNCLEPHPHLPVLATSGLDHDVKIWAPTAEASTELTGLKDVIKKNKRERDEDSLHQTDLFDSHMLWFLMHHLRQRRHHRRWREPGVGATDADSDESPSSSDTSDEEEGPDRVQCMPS

**Q.** Which “dose-dependent thermal stabilisation call” value does the source give for mTOR (UniProt P42345) here?
**A.** The value was inactive: 0.

**Q.** Which “dose-dependent thermal stabilisation call” value does the source give for ZNF592 (UniProt Q92610) here?
**A.** Its value is inactive: 0.

**Q.** Which “dose-dependent thermal stabilisation call” value does the source give for ZNF609 (UniProt O15014) here?
**A.** Its value is inactive: 0.

**Q.** With ZFYVE27 (UniProt Q5T4F4) as the target, how does the “dose-dependent thermal stabilisation call” value read?
**A.** Its value is inactive: 0.

**Q.** Which “dose-dependent thermal stabilisation call” value does the source give for XPO5 (UniProt Q9HAV4) here?
**A.** Its value is inactive: 0.

**Q.** How did the “dose-dependent thermal stabilisation call” value turn out when YIPF5 (UniProt Q969M3) was run?
**A.** The value was inactive: 0.

**Q.** For ZCRB1 (UniProt Q8TBF4), which “dose-dependent thermal stabilisation call” value is on record?
**A.** The value was inactive: 0.

**Q.** How did the “dose-dependent thermal stabilisation call” value turn out when XRCC6BP1 (UniProt Q9Y6H3) was run?
**A.** Its value is inactive: 0.

**Q.** How did the “dose-dependent thermal stabilisation call” value turn out when WDR59 (UniProt Q6PJI9) was run?
**A.** Its value is inactive: 0.

**Q.** How did the “dose-dependent thermal stabilisation call” value turn out when WRNIP1 (UniProt Q96S55) was run?
**A.** The value was inactive: 0.

**Q.** How did the “dose-dependent thermal stabilisation call” value turn out when WIPF1 (UniProt O43516) was run?
**A.** The value was inactive: 0.

**Q.** WDR89 (UniProt Q96FK6) was tested. Which “dose-dependent thermal stabilisation call” value did it give?
**A.** The value was inactive: 0.

**Q.** Which “dose-dependent thermal stabilisation call” value does the source give for ZNF853 (UniProt P0CG23) here?
**A.** Its value is inactive: 0.

**Q.** Which “dose-dependent thermal stabilisation call” value does the source give for ZNF280D (UniProt Q6N043) here?
**A.** Its value is inactive: 0.

**Q.** For WDR18 (UniProt Q9BV38), which “dose-dependent thermal stabilisation call” value is on record?
**A.** Its value is inactive: 0.

**Q.** For ZNF828 (UniProt Q96JM3), which “dose-dependent thermal stabilisation call” value is on record?
**A.** Its value is inactive: 0.

**Q.** XAB2 (UniProt Q9HCS7) was tested. Which “dose-dependent thermal stabilisation call” value did it give?
**A.** Its value is inactive: 0.

**Q.** With ZNF687 (UniProt Q8N1G0) as the target, how does the “dose-dependent thermal stabilisation call” value read?
**A.** The value was inactive: 0.

**Q.** With YDJC (UniProt A8MPS7) as the target, how does the “dose-dependent thermal stabilisation call” value read?
**A.** Its value is inactive: 0.

**Q.** ZMAT2 (UniProt Q96NC0) was tested. Which “dose-dependent thermal stabilisation call” value did it give?
**A.** The value was inactive: 0.

**Q.** For ZMPSTE24 (UniProt O75844), which “dose-dependent thermal stabilisation call” value is on record?
**A.** Its value is inactive: 0.

**Q.** ZW10 (UniProt O43264) was tested. Which “dose-dependent thermal stabilisation call” value did it give?
**A.** The value was inactive: 0.

**Q.** How did the “dose-dependent thermal stabilisation call” value turn out when XRCC4 (UniProt Q13426) was run?
**A.** Its value is inactive: 0.

**Q.** With ZFAND6 (UniProt Q6FIF0) as the target, how does the “dose-dependent thermal stabilisation call” value read?
**A.** The value was inactive: 0.

**Q.** Which “dose-dependent thermal stabilisation call” value does the source give for WWP2 (UniProt O00308) here?
**A.** Its value is inactive: 0.

**Q.** Which “dose-dependent thermal stabilisation call” value does the source give for WDR7 (UniProt Q9Y4E6) here?
**A.** Its value is inactive: 0.

**Q.** How did the “dose-dependent thermal stabilisation call” value turn out when WDR68 (UniProt P61962) was run?
**A.** The value was inactive: 0.

**Q.** Which “dose-dependent thermal stabilisation call” value does the source give for ZZEF1 (UniProt O43149) here?
**A.** The value was inactive: 0.

**Q.** With WDR24 (UniProt Q96S15) as the target, how does the “dose-dependent thermal stabilisation call” value read?
**A.** Its value is inactive: 0.

**Q.** How did the “dose-dependent thermal stabilisation call” value turn out when ZNF593 (UniProt O00488) was run?
**A.** Its value is inactive: 0.

**Q.** For WDR42A (UniProt Q5TAQ9), which “dose-dependent thermal stabilisation call” value is on record?
**A.** Its value is inactive: 0.

**Q.** How did the “dose-dependent thermal stabilisation call” value turn out when XPO4 (UniProt Q9C0E2) was run?
**A.** Its value is inactive: 0.

**Q.** ZNF830 (UniProt Q96NB3) was tested. Which “dose-dependent thermal stabilisation call” value did it give?
**A.** The value was inactive: 0.

**Q.** With ZYX (UniProt Q15942) as the target, how does the “dose-dependent thermal stabilisation call” value read?
**A.** The value was inactive: 0.

**Q.** For ZC3H7A (UniProt Q8IWR0), which “dose-dependent thermal stabilisation call” value is on record?
**A.** The value was inactive: 0.

**Q.** YJ005_HUMAN (UniProt Q6ZSR9) was tested. Which “dose-dependent thermal stabilisation call” value did it give?
**A.** Its value is inactive: 0.
